Source: PMC12164589
Results are given in words; binding and its absence hold for the method and conditions named. Binding can be weak; no strength is given. For part of these data: Binding seen in cells or lysates may run through a third protein. For part of these data: Where a sequence is shown, tags or fusion partners need not be part of it.

How the values were obtained:
[1] = target: T1, recombinant AUR1 of the pull-down with CCS52A2_(WD40) and CCS52B_(WD40) (Arabidopsis thaliana) (UniProt Q9M077); test: pull-down; 4 ug purified proteins with different epitopes in 500 uL binding buffer (300 mM NaCl, 50 mM Tris-HCl pH 8.0, 1 mM PMSF, 1 mM DTT), 4 C 4 h, then Ni-NTA beads 2 h; His- or SUMO-tagged AUR1 held on Ni-NTA, GST proteins detected by anti-GST; both purified
T1 sequence: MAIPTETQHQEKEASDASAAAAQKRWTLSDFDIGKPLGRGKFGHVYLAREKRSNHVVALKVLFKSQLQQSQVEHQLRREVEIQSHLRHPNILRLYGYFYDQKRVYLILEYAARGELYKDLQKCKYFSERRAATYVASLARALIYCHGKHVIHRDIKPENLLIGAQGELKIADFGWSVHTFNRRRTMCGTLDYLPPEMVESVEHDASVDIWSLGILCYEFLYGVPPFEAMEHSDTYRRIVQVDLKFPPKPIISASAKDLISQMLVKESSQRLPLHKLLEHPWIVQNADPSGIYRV

[2] = target: AUR1△D-box-nLUC (Arabidopsis thaliana); test: split reporter; split-luciferase complementation, nLUC and cLUC fusions co-expressed in N. benthamiana leaves with P19
[3] = target: AUR1 D-box domain fragment as yeast two-hybrid bait in pGBKT7 (Arabidopsis thaliana); test: two-hybrid; full-length AUR1 and deletion derivatives as bait in pGBKT7, preys in pGADT7; growth on SD/-WLHA, SD/-WLH and SD/-WL
[4] = target: AUR1△D-box-FLAG (Arabidopsis thaliana); test: co-IP; proteins transiently co-expressed in N. benthamiana leaves; supernatants incubated with affinity beads (anti-FLAG or anti-GFP) at 4 C for 4 h, washed 3 times, immunoblot

Molecule	binding [1]	binding [2]	further results
CCS52B_(WD40), truncated form including WD40 repeats (GST fusion) (Arabidopsis thaliana) (domain or fragment)	binds		
CCS52A2_(WD40), truncated form including WD40 repeats (GST fusion) (Arabidopsis thaliana) (domain or fragment)	binds		
CDC20.1-cLUC (protein, UniProt Q9SZA4 1-457) MDAGMNNTSSHYKTQARCPLQEHFLPRKPSKENLDRFIPNRSAMNFDYAHFALTEGRKGKDQTAAVSSPSKEAYRKQLAETMNLNHTRILAFRNKPQAPVELLPSNHSASLHQQPKSVKPRRYIPQTSERTLDAPDIVDDFYLNLLDWGSANVLAIALDHTVYLWDASTGSTSELVTIDEEKGPVTSINWAPDGRHVAVGLNNSEVQLWDSASNRQLRTLKGGHQSRVGSLAWNNHILTTGGMDGLIINNDVRIRSPIVETYRGHTQEVCGLKWSGSGQQLASGGNDNVVHIWDRSVASSNSTTQWLHRLEEHTSAVKALAWCPFQANLLATGGGGGDRTIKFWNTHTGACLNSVDTGSQVCSLLWSKNERELLSSHGFTQNQLTLWKYPSMVKMAELTGHTSRVLYMAQSPDGCTVASAAGDETLRFWNVFGVPETAKKAAPKAVSEPFSHVNRIR		binds	
full-length APC10 as yeast two-hybrid prey in pGADT7 (protein, UniProt Q9ZPW2 1-192) MATESSESEEEGKISGGNYKLIIDDDLREMGKNAAWSVSSCKPGNGVTTLRDDNLETYWQSDGLQPHLINIQFQKKVKLQLVVLYVDFKLDESYTPSKISIRAGDGFHNLKEIKSVELVKPTGWVCLSLSGTDPRETFVNTFMLQIAILSNHLNGRDTHIRQIKVYGPRPNPIPHQPFQFTSMEFLTYSTLR			binding [3]: binds
CDC20.1-GFP (protein, UniProt Q9SZA4 1-457) MDAGMNNTSSHYKTQARCPLQEHFLPRKPSKENLDRFIPNRSAMNFDYAHFALTEGRKGKDQTAAVSSPSKEAYRKQLAETMNLNHTRILAFRNKPQAPVELLPSNHSASLHQQPKSVKPRRYIPQTSERTLDAPDIVDDFYLNLLDWGSANVLAIALDHTVYLWDASTGSTSELVTIDEEKGPVTSINWAPDGRHVAVGLNNSEVQLWDSASNRQLRTLKGGHQSRVGSLAWNNHILTTGGMDGLIINNDVRIRSPIVETYRGHTQEVCGLKWSGSGQQLASGGNDNVVHIWDRSVASSNSTTQWLHRLEEHTSAVKALAWCPFQANLLATGGGGGDRTIKFWNTHTGACLNSVDTGSQVCSLLWSKNERELLSSHGFTQNQLTLWKYPSMVKMAELTGHTSRVLYMAQSPDGCTVASAAGDETLRFWNVFGVPETAKKAAPKAVSEPFSHVNRIR			binding [4]: binds
APC10-cLUC (protein, UniProt Q9ZPW2 1-192) MATESSESEEEGKISGGNYKLIIDDDLREMGKNAAWSVSSCKPGNGVTTLRDDNLETYWQSDGLQPHLINIQFQKKVKLQLVVLYVDFKLDESYTPSKISIRAGDGFHNLKEIKSVELVKPTGWVCLSLSGTDPRETFVNTFMLQIAILSNHLNGRDTHIRQIKVYGPRPNPIPHQPFQFTSMEFLTYSTLR		no binding	
